Assay results taken from article PMC11405525.
These are yes or no findings as the source states them, for the method shown. Binding seen in cells or lysates may run through a third protein. Some binding calls cover weakened binding; strength is not graded here.

By UniProt entry, the sequences of proteins in these tests, tags left out.
UniProt P61289: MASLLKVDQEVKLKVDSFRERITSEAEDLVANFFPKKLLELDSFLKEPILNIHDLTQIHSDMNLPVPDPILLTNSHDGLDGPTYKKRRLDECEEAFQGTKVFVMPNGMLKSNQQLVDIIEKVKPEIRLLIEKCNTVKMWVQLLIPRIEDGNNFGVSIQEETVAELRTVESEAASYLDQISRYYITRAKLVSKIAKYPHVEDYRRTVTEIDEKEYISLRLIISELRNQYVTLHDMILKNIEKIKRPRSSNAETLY
UniProt P20700: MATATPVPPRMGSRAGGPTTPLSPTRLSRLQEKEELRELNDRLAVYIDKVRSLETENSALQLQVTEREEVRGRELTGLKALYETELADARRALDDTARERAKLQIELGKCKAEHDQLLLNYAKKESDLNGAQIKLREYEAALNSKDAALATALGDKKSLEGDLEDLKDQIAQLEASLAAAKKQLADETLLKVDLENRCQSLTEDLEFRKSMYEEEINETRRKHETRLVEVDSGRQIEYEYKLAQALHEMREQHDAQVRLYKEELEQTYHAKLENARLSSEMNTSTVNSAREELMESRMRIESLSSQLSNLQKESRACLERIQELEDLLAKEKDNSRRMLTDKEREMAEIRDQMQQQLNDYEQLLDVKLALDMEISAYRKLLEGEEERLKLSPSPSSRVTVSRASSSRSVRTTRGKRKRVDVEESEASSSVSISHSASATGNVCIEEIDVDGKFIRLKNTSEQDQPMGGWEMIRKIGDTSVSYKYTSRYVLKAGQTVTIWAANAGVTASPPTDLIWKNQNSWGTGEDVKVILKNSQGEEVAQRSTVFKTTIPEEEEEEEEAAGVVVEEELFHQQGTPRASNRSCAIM

Experiments:
[1] = target: PSME3 (proteasome activator complex subunit 3) (human (endogenous in HeLa)) (UniProt P61289); test: co-IP; HeLa cells transfected with pEGFP-C1-PQBP3 or pEGFP-C1, with or without 150 uM hydrogen peroxide (senescence induction); lysis and washes in TNE buffer (10 mM Tris-HCl pH 7.5, 150 mM NaCl, 1 mM EDTA, 1% Nonidet P-40); IP with anti-GFP, anti-PSME3 or anti-Lamin B1 antibody and Protein-G Sepharose, 4 °C; western blot
[2] = target: PSME3 (proteasome activator complex subunit 3) (human (endogenous in HeLa)) (UniProt P61289); test: co-IP; nontransfected HeLa cells, endogenous proteins, with or without 150 uM hydrogen peroxide for 24 h; lysis and washes in RIPA buffer (10 mM Tris-HCl pH 7.5, 150 mM NaCl, 1 mM EDTA, 1% Triton X-100, 0.1% SDS, 0.1% deoxycholate); IP with antibody and protein G sepharose, 4 °C; western blot
[3] = target: T1, PQBP3/NOL7 (polyglutamine binding protein 3; nucleolar protein 7), endogenous (human (endogenous in HeLa)) (UniProt Q9UMY1); test: as above
T1 sequence: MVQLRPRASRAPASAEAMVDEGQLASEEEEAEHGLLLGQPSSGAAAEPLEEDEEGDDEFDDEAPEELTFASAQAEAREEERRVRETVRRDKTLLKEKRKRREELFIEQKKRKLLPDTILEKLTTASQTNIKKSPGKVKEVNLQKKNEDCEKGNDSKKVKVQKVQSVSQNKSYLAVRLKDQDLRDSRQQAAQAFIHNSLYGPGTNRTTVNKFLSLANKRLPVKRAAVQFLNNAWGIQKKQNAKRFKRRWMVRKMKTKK

Substance | binding [1] | binding [2] | binding [3]
Lamin B1 (from UniProt P20700 1-586) | binds | binds | 
PSME3 (proteasome activator complex subunit 3) (from UniProt P61289 1-254) |  |  | binds
